Test results published in the supplement of paper PMC12823440, “Inhibitors supercharge kinase turnover through native proteolytic circuits” (Nature, 2025).
Where a name gives a salt, the structure may show the parent alone. This is one part of the list. The calls rarely recur for the same compound in another form.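 In K562 cells expressing nanoluciferase-fused kinases, luminescence was recorded at 4 h intervals between 2 and 18 h, normalized as percent of control with DMSO at 100% and a positive control at 0%. A significant (2 sigma) signal drop marks a time point as decreased. The authors' rule for a hit is not shown and takes in more than the number of time points.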

The chains behind the UniProt entries cited, without tags or fusion partners.
UniProt Q9Y463, whole entry, looked up: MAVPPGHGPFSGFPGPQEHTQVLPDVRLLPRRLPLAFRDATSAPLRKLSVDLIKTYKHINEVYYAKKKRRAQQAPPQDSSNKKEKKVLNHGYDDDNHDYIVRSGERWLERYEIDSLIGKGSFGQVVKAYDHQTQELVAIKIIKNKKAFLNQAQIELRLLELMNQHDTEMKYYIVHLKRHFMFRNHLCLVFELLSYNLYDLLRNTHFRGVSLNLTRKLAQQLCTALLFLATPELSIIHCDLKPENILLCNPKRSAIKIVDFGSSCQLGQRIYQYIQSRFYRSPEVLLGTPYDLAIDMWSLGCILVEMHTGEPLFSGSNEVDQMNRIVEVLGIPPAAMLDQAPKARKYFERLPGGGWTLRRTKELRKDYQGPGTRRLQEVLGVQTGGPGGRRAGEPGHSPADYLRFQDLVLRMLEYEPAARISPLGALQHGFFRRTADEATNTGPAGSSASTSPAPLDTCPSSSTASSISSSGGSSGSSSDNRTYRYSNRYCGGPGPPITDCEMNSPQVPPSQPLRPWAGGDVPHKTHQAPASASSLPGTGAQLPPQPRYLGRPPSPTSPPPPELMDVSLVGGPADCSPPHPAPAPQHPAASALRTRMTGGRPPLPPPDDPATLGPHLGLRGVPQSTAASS

Target: DYRK1B (UniProt Q9Y463)
Assay: kinase-Nluc reporter destabilization hit call (1 = scored as downregulated) (binary); higher = compound decreases kinase abundance
Conditions: 2.5 µM; K562; 2-18 h

kinase-Nluc reporter destabilization hit call, inactive:
C=CC(=O)N1CCC[C@@H](n2nc(-c3ccc(Oc4ccccc4)cc3)c3c(N)ncnc32)C1 [Ibrutinib] 0
Cc1cn(-c2cc(NC(=O)c3ccc(C)c(Nc4nccc(-c5cccnc5)n4)c3)cc(C(F)(F)F)c2)cn1 [Nilotinib] 0
Cc1cc(C)n2c1C=C1C=CC(CCC(=O)NCCN3CCN(C/C=C/C(=O)N4CCCC(n5nc(-c6ccc(Oc7ccccc7)cc6)c6c(N)ncnc65)C4)CC3)=[N+]1[B-]2(F)F (configuration not stated) 0
Cc1cnc(Nc2ccc(OCCN3CCCC3)cc2)nc1Nc1cccc(S(=O)(=O)NC(C)(C)C)c1 [Fedratinib (hydrochloride hydrate)] 0
C=CC(=O)Nc1cc2c(Nc3ccc(F)c(Cl)c3)ncnc2cc1OCCCN1CCOCC1 [Canertinib (dihydrochloride)] 0
O=C(Nc1cccc(Nc2nccc(Nc3cccc(C(F)(F)F)c3)n2)c1)C1CC1 [Aurora kinase inhibitor-3] 0
COc1ccc(-c2cc3nccn3c(Nc3ncccc3C(N)=O)n2)cc1OC [BAY 61-3606 (dihydrochloride)] 0
Nc1nc(Nc2ccc(S(N)(=O)=O)cc2)nn1C(=O)c1c(F)cccc1F 0
COc1cc(N2CCC(N3CCN(C)CC3)CC2)ccc1Nc1ncc(Cl)c(Nc2ccccc2S(=O)(=O)C(C)C)n1 0
COc1cc(Nc2c(C#N)cnc3cc(OCCCN4CCN(C)CC4)c(OC)cc23)c(Cl)cc1Cl [Bosutinib] 0
CCc1cc2c(cc1-c1cnn(CC(=O)N(C)C)c1)C(C)(C)c1[nH]c3cc(C#N)ccc3c1C2=O 0
Cc1cnc(Nc2ccc(OCCN3CCCC3)cc2)nc1Nc1cccc(S(=O)(=O)NC(C)(C)C)c1 [Fedratinib] 0
Cc1cc(Nc2cc(N3CCN(C)CC3)nc(/C=C/c3ccccc3)n2)n[nH]1 [ENMD-2076 (Tartrate)] 0
Cc1cc(Nc2cc(N3CCN(C)CC3)nc(/C=C/c3ccccc3)n2)n[nH]1 0

Same assay, conditions: 10 µM; K562; 2-18 h

kinase-Nluc reporter destabilization hit call, inactive:
C=CC(=O)N1CCC([C@@H]2CCNc3c(C(N)=O)c(-c4ccc(Oc5ccccc5)cc4)nn32)CC1 [Zanubrutinib] 0
CCn1c(=O)c(-c2cc(NC(=O)Nc3ccccc3)c(F)cc2Br)cc2cnc(NC)cc21 [Ripretinib] 0
COc1cc(N2CCN(C)CC2)ccc1Nc1nccc(-c2cn(C)c3cnccc23)n1 0
Fc1ccc(-c2nc(-c3ccc4ccccc4c3F)[nH]c2-c2ccncc2)cc1 0
C=CC(=O)N(C)CCOc1c(N)ncnc1-c1cc(F)cc(NC(=O)c2ccc(C3CC3)cc2F)c1C [Remibrutinib] 0
NCCNc1ncc(C(N)=O)c(Nc2cccc(C(F)(F)F)c2)n1 [Syk Inhibitor II] 0
C[C@@H]1O[C@@H](Oc2c(-c3ccc(O)c(O)c3)oc3cc(O)cc(O)c3c2=O)[C@H](O)[C@H](O)[C@H]1O [Quercitrin] 0
CCCOc1ccc(C=C2SC(=O)NC2=O)cc1 0
Cc1cc2c(F)c(Oc3ncnn4cc(OC[C@@H](C)O)c(C)c34)ccc2[nH]1 [Brivanib] 0
CC(C)[C@@](C)(O)[C@@H]1CN(c2nc(-c3[nH]nc4ncccc34)c(F)cc2Cl)CCN1 0
CCCCCCCCCCCCc1ccc(S(=O)(=O)Nc2nncs2)cc1 0
CC#CC(=O)N1CCC[C@H]1c1nc(-c2ccc(C(=O)Nc3ccccn3)cc2)c2c(N)nccn12 [Acalabrutinib] 0
CC(C)N(CCC(=O)c1ccc2ccccc2c1)Cc1ccccc1 0
C=CC(=O)N1C[C@@H](Nc2ncnc3[nH]ccc23)CC[C@H]1C [(2R,5S)-Ritlecitinib] 0
COc1ccc(-c2cc(C(=O)NN=C(C)c3ccc(OC)c(OC)c3)[nH]n2)cc1 0
Cn1cc(/C=C2\C(=O)Nc3cccnc32)c2ccccc21 0
Cc1ccc2c(=O)c3cccc(CC(=O)O)c3oc2c1C [Vadimezan] 0
C[C@@H]1CN(C(=O)Nc2ccc(-c3nc(N4CCOCC4)c4cnn(CCCCCCC(=O)NO)c4n3)cc2)CCO1 [HDACs/mTOR Inhibitor 1] 0

Three records picked at random from the list so far, as already listed:
kinase-Nluc reporter destabilization hit call, inactive:
Cn1cc(/C=C2\C(=O)Nc3cccnc32)c2ccccc21 0
C=CC(=O)N(C)CCOc1c(N)ncnc1-c1cc(F)cc(NC(=O)c2ccc(C3CC3)cc2F)c1C [Remibrutinib] 0
C[C@@H]1O[C@@H](Oc2c(-c3ccc(O)c(O)c3)oc3cc(O)cc(O)c3c2=O)[C@H](O)[C@H](O)[C@H]1O [Quercitrin] 0
